Laboratory results taken from patent US20240374745A1.
These are yes or no findings as the source states them, for the method shown. Some binding calls cover weakened binding; strength is not graded here.

Target: Recombinant LRP1 (residues 20-974), StrepII-tagged fusion with the human IgG1 Fc region
Assay: affinity depletion on LRP1-conjugated resin, read by pore-limited native PAGE

- binding: binds
B1: A2M TR S1, non-native component (protein)
chain: SVSGKPQYMVLVPSLLHTETTEKGCVLLSYLNETVTVSASLESVRGNRSLFTDLEAENDVLHCVAFAVPKSSSNEEVMFLTVQVKGPTQEFKKRTTVMVKNEDSLVFVQTDKSIYKPGQTVKFRVVSMDENFHPLNELIPLVYIQDPKGNRIAQWQSFQLEGGLKQFSFPLSSEPFQGSYKVVVQKKSGGRTEHPFTVEEFVLPKFEVQVTVPKIITILEEEMNVSVCGLYTYGKPVPGHVTVSICRKYSDASDCHGEDSQAFCEKFSGQLNSHGCFYQQVKTKVFQLKRKEYEMKLHTEAQIQEEGTVVELTGRQSSEITRTITKLSFVKVDSHFRQGIPFFGQVRLVDGKGVPIPNKVIFIRGNEANYYSNATTDEHGLVQFSINTTNVMGTSLTVRVNYKDRSPCYGYQWVSEEHEEAHHTAYLVFSPSKSFVHLEPMSHELPCGHTQTVQAHYILNGGTLLGLKKLSFYYLIMAKGGIVRTGTHGLLVKQEDMKGHFSISIPVKSDIAPVARLLIYAVLPTGDVIGDSAKYDVENCLANKVDLSFSPSQSLPASHAHLRVTAAPQSVCALRAVDQSVLLMKPDAELSASSVYNLLPEKDLTGFPGPLNDQDDEDCINRHNVYINGITYTPVSSTNEKDMYSFLEDMGLKAFTNSKIRKPKMCGGSGGSGGSGGSGGGGSPQGIAGQGGSGGSGGSGGSGGSETVRKYFPETWIWDLVVVNSAGVAEVGVTVPDTITEWKAGAFCLSEDAGLGISSTASLRAFQPFFVELTMPYSVIRGEAFTLKATVLNYLPKCIRVSVQLEASPAFLAVPVEKEQAPHCICANGRQTVSWAVTPKSLGNVNFTVSAEALESQELCGTEVPSVPEHGRKDTVIKPLLVEPEGLEKETTFNSLLCPSGGEVSEELSLKLPPNVVEESARASVSVLGDILGSAMQNTQNLLQMPYGCGEQNMVLFAPNIYVLDYLNETQQLTPEVKSKAIGYLNTGYQRQLNYKHYDGSYSTFGERYGRNQGNTWLTAFVLKTFAQARAYIFIDEAHITQALIWLSQRQKDNGCFRSSGSLLNNAIKGGVEDEVTLSAYITIALLEIPLTVTHPVVRNALFCLESAWKTAQEGDHGSHVYTKALLAYAFALAGNQDKRKEVLKSLNEEAVKKDNSVHWERPQKPKAPVGHFYEPQAPSAEVEMTSYVLLAYLTAQPAPTSEDLTSATNIVKWITKQQNAQGGFSSTQDTVVALHALSKYGAATFTRTGKAAQVTIQSSGTFSSKFQVDNNNRLLLQQVSLPELPGEYSMKVTGEGCVYLQTSLKYNILPEKEEFPFALGVQTLPQTCDEPKAHTSFQISLSVSYTGSRSASNMAIVDVKMVSGFIPLKPTVKMLERSNHVSRTEVSSNHVLIYLDKVSNQTLSLFFTVLQDVPVRDLKPAIVKVYDYYETDEFAIAEYNAPCSKDLGNA
